Experimental data from PubChem BioAssay AID248 (DTP/NCI, 2004).
The list does not hold the whole screen: it is rich in T/C values a quarter to a half above the control, in often repeated tests (any T/C) and in doses without a T/C. Other doses and runs of a compound stand elsewhere. T/C: endpoint of the treated group in % of that of the vehicle group. Some entries give survivors of the animals treated and no T/C: the source holds a T/C of zero for them, seemingly a mark for toxic or unscored doses. Some survivor counts are full or nearly so, which does not show that the dose was tolerated: the source hardly ever lists a survival T/C far under the control, and the zero likely stands for such cases as well. Counts of survivors are from the toxicity check (mostly the fifth day) where no day follows; animals may have died later. Schedules are NCI's codes, taken here to give the interval after Q, in days (D) or hours (H), and the number of doses after X. Some molecules as drawn cover several salts, stereoisomers or complexes of the source; a dose is that of the sample tested. Some entries hold several experiments; the values are given in rising order. Where survival is the endpoint, this PubChem deposit counts one and a half times the control or more as active, and values a quarter to a half above the control carry no call in these data; other NCI protocols may use other cut-offs. Some T/C values carry the count of animals alive at the toxicity check (mostly the fifth day); without a count, all were alive then.

Test system: L1210 leukemia ip in BDF1 mice, survival T/C
Experiment: NCI In Vivo Anticancer Drug Screen. Data for tumor model L1210 Leukemia (intraperitoneal) in B6D2F1 (BDF1) mice
Settings: T/C endpoint: mean survival time, higher T/C = longer survival
[1] = dose: 20.0 mg/kg/injection, schedule: Q01DX009 (ip), vehicle: Klucel (hydroxypropylcellulose) (HPC)

CCCCCCCCCCCCCCCC[N+]1(CC)CCOCC1
T/C (dose: 10.0 mg/kg/injection, schedule: Q01DX009 (ip), vehicle: Klucel (hydroxypropylcellulose) (HPC)): 98 [5 of 6 alive], 102, 109, 117 % of control | T/C [1]: 87 [5 of 6 alive], 92, 109 % of control | survivor count [1]: 1 of 3 | survivor count (dose: 20.0 mg/kg/injection, schedule: Q01DX009 (ip), vehicle: saline): 0 of 3 and 5 of 6 | survivor count (dose: 20.0 mg/kg/injection, schedule: Q04DX002 (ip), vehicle: saline): 6 of 6 | survivor count (dose: 40.0 mg/kg/injection, schedule: Q01DX009 (ip), vehicle: Klucel (hydroxypropylcellulose) (HPC)): 0 of 3 and 5 of 6 | survivor count (dose: 40.0 mg/kg/injection, schedule: Q01DX009 (ip), vehicle: saline): 0 of 3 and 1 of 6 | survivor count (dose: 40.0 mg/kg/injection, schedule: Q04DX002 (ip), vehicle: Klucel (hydroxypropylcellulose) (HPC)): 2 of 3 | survivor count (dose: 100.0 mg/kg/injection, schedule: Q04DX002 (ip), vehicle: Klucel (hydroxypropylcellulose) (HPC)): 0 of 6, 1 of 3, 3 of 3 | survivor count (dose: 100.0 mg/kg/injection, schedule: Q04DX002 (ip), vehicle: saline): 1 of 3 and 2 of 6 | survivor count (dose: 200.0 mg/kg/injection, schedule: Q04DX002 (ip), vehicle: Klucel (hydroxypropylcellulose) (HPC)): 0 of 6 and 2 of 3 | survivor count (dose: 200.0 mg/kg/injection, schedule: Q04DX002 (ip), vehicle: saline): 0 of 3 and 0 of 6 | survivor count (dose: 400.0 mg/kg/injection, schedule: Q04DX002 (ip), vehicle: Klucel (hydroxypropylcellulose) (HPC)): 0 of 3 and 0 of 6 | survivor count (dose: 400.0 mg/kg/injection, schedule: Q04DX002 (ip), vehicle: saline): 0 of 3 and 0 of 6

CC(=O)ON1C(=O)c2cccc3cccc(c23)C1=O
survivor count (dose: 400.0 mg/kg/injection, schedule: Q04DX002 (ip), vehicle: saline with Tween-80): 1 of 3

CC(CN1CCCC1)C(O)(Cc1ccccc1)c1ccccc1 (configuration not stated)
survivor count (dose: 100.0 mg/kg/injection, schedule: Q01DX009 (ip), vehicle: saline): 1 of 6 | survivor count (dose: 200.0 mg/kg/injection, schedule: Q04DX003 (ip), vehicle: saline): 1 of 6 | survivor count (dose: 400.0 mg/kg/injection, schedule: Q04DX003 (ip), vehicle: saline): 0 of 6

Clc1ccc2sc3c(c2c1)CCNC3
survivor count (dose: 50.0 mg/kg/injection, schedule: Q04DX003 (ip), vehicle: Klucel (hydroxypropylcellulose) (HPC)): 4 of 4 | survivor count (dose: 400.0 mg/kg/injection, schedule: Q04DX003 (ip), vehicle: Klucel (hydroxypropylcellulose) (HPC)): 1 of 4

CCOC(=O)C(OCc1ccccc1)(C(=O)Cl)C(C)C (configuration not stated)
survivor count (dose: 50.0 mg/kg/injection, schedule: Q01DX009 (ip), vehicle: saline with Tween-80): 3 of 6 | survivor count (dose: 100.0 mg/kg/injection, schedule: Q01DX009 (ip), vehicle: saline with Tween-80): 1 of 6 | survivor count (dose: 100.0 mg/kg/injection, schedule: Q04DX003 (ip), vehicle: saline with Tween-80): 1 of 6 | survivor count (dose: 200.0 mg/kg/injection, schedule: Q04DX003 (ip), vehicle: saline with Tween-80): 0 of 6 | survivor count (dose: 400.0 mg/kg/injection, schedule: Q04DX003 (ip), vehicle: saline with Tween-80): 0 of 6

CCOC1c2cnc(C)n2C=CN1C(C)=O (configuration not stated)
survivor count (dose: 200.0 mg/kg/injection, schedule: Q01DX009 (ip), vehicle: water): 4 of 6 | survivor count (dose: 400.0 mg/kg/injection, schedule: Q04DX003 (ip), vehicle: water): 1 of 6
